Experimental data: patent publication US20250302875A1 (AVENCELL EUROPE, published 2025)
No constants are given. Whether binding was seen depends on the method and setting. Some results given as binding are weak or reduced against the parent protein; the word gives no strength.

The chains behind the UniProt entries cited, without tags or fusion partners. Where a name states a change or a piece, a line headed by the entry shows the natural chain unless it says otherwise.
UniProt P35225: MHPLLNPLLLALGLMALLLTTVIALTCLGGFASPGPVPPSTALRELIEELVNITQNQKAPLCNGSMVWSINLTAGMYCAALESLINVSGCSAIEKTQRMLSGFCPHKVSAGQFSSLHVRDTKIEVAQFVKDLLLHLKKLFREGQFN

Biological target: T1, IL13Rα1 on recombinant K562-IL13Rα1 cell line (UniProt P78552)
T1 sequence (looked up): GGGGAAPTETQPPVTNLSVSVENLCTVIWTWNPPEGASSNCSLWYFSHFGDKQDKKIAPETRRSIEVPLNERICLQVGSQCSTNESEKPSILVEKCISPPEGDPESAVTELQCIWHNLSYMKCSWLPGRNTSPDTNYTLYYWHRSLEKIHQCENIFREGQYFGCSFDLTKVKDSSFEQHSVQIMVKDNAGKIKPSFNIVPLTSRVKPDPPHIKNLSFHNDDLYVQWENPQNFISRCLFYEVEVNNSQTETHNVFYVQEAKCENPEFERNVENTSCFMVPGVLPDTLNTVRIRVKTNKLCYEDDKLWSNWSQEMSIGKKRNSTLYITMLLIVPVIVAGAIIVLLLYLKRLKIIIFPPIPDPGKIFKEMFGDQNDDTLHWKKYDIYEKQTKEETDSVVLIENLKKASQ
Experiment: flow cytometry cellular binding assay on recombinant K562-IL13Rα1 cells, two-step immunostaining (anti-His-tag-PE), absolute MFI against TM concentration

Question: Which binding does the source give for “targeting module comprising IL13wt (from UniProt P35225 35-146) (ligand)” here?
Answer: Its binding is “binds”.
